In patent US20030158378A1 (Amgen, published 2003):
No constants are given. Whether binding was seen depends on the method and setting. In cells and extracts the contact can be indirect. Where a sequence is shown, tags or fusion partners need not be part of it.

Target: TGFβ
Experiment: co-immunoprecipitation with anti-mCHL2 antiserum and protein A agarose, Western blot

B1: FLAG-tagged murine CHL2 polypeptide (mCHL2-FLAG) (protein, not shown: small tags and cut ends)
chain: LSRSGKVCLFGEKIYTPGQSWHPYLEPQGTIYCVRCTCSENGHVNCYRLRCPPLHCSQPVMEPQQCCPRCVDPHVPSGLRVPLKSCQLNETTYQHGEIFSAQELFPARLSNQCVLCSCIEGHTYCGLMTCPEPSCPTTLPLPDSCCQTCKDRTTESSTEENLTQLQHGERHSQDPCSERRGPSTPAPTSLSSPLGFIPRHFQSVGMGSTTIKIILKEKHKKACTHNGKTYSHGEVWHPTVLSFGPMPCILCTCIDGYQDCHRVTCPTQYPCSQPKKVAGKCCKICPEDEAEDDHSEVISTRCPKVPGQFQVYTLASPSPDSLHRFVLEHEASDQVEMYIWKLVKGIYHLVQIKRVRKQDFQKEAQNFRLLTGTHEGYWTVFLAQTPELKVTASPDKVTKTL
Q: How did the binding turn out when B1 was run?
A: Its binding is “no binding (tested: mCHL2-FLAG protein was used at 600 ng/ml)”.
